{"source": "patent US20030233681", "about": "“ICE1, a regulator of cold induced transcriptome and freezing tolerance in plants” (Arizona Bd of Regents/Behalf of Univ. of Arizona, published 2003)", "molecular_target": "T1, ICE1 (Arabidopsis thaliana) (UniProt Q9LSE2)", "T1 sequence (limits assumed)": "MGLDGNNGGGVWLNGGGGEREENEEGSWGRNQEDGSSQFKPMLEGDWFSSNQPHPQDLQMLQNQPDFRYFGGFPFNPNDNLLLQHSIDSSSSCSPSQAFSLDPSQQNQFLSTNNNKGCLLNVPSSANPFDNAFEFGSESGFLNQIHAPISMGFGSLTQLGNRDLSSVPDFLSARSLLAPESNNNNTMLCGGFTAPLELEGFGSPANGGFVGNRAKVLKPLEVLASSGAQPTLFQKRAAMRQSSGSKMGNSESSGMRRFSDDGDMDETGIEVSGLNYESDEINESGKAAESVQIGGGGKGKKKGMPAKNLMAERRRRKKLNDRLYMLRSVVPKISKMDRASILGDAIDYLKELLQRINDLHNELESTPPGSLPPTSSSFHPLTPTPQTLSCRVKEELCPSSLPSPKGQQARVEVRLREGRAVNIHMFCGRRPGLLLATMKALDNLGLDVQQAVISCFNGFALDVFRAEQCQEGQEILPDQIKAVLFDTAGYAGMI", "assay": "competition with a labelled probe", "conditions": "mutated competitor affected complex less than wild type; 50-250 fold excess; purified recombinant protein; protein details: His tag N-terminal (pET14b, E. coli BL21 DE3); variant of MYC-2", "note": "A weaker result is weaker than the reference pair of the same experiment. Protein sequences can lack the tags named with them."}
{"sequence": "CTCTGGAACCAGTGCAGATC (double strand) [MYC-2 (M)]", "values": [{"measurement": "binding result", "value": "binds more weakly"}]}
